Patent US20050158834
Numbering of substitutions follows the chain as printed. The exact form of at least one protein or probe is not confirmed. Where a protein sequence is shown, tags need not be part of it.

Experiments:
Assay in all cases: enzyme reaction in vitro
[1] = test system: T1, SapI variants 11/15 (K80E/E250K/K273R common substitutions) (Saccharopolyspora sp.); conditions: most active nicking clones of the screen; other substitutions not listed; protein in a lysate after overexpression; only the site is given
T1 sequence: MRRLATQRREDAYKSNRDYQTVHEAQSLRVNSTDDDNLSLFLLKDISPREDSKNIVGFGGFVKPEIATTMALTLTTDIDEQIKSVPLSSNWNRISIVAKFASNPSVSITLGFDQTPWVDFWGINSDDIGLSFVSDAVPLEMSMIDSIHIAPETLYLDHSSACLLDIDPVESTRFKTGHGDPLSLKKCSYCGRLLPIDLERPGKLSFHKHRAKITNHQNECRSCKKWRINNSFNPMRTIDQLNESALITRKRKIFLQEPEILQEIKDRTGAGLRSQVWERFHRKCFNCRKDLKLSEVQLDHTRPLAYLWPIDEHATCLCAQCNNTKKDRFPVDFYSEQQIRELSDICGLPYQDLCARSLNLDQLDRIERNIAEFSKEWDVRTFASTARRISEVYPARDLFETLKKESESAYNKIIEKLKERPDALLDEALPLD

[2] = test system: T2, Nt.SapI (G271R) (Saccharopolyspora sp.); conditions: exclusive top-strand nicking; protein in a lysate after overexpression; only the site is given
T2 sequence: T1 sequence with E80K, K250E, G271R, R273K

[3] = test system: T3, Nb.SapI (variant 33 + D34Y/I82V/P168L/R420I) (Saccharopolyspora sp.); conditions: bottom-strand nicking between 4th and 5th nt downstream of site; NEB buffer 4, 37 C, 60 min; value is titer of purified lot; purified recombinant protein; only the site is given
T3 sequence: T1 sequence with D34Y, E80K, I82V, P168L, N230I, K250E, R273K, R420I

[4] = test system: T4, SapI (Saccharopolyspora sp.); conditions: linearizes pUC19 (double-strand cleavage); purified recombinant protein; protein details: New England Biolabs; only the site is given
T4 sequence: T1 sequence with E80K, K250E, R273K

[5] = test system: T5, Nt.SapI (Q240R) (Saccharopolyspora sp.); conditions: exclusive top-strand nicking; protein in a lysate after overexpression; only the site is given
T5 sequence: T1 sequence with E80K, Q240R, K250E, R273K

[6] = test system: T6, Nt.SapI (K273R) (Saccharopolyspora sp.); conditions: exclusively top-strand nicked product; NEB buffer 4, 37 C; protein in a lysate after overexpression; only the site is given
T6 sequence: T1 sequence with E80K, K250E

[7] = test system: T7, Nt.SapI (E250K) (Saccharopolyspora sp.); conditions: top-strand nicking between 1st and 2nd nt downstream of site; NEB buffer 4, 37 C; most active top-strand variant; value is production level; protein in a lysate after overexpression; only the site is given
T7 sequence: T1 sequence with E80K, N230I, R273K

## TGCGTATTGGGCGCTCTTCCGCTTCCTCG (double strand) [pUC19 SapI site]
[1]
  activity on this sequence: active
[2]
  activity on this sequence: active
[3]
  activity on this sequence: 2 units/µL
[4]
  activity on this sequence: active
[5]
  activity on this sequence: active
[6]
  activity on this sequence: active
[7]
  activity on this sequence (units/g wet cells): 10000
